Experimental data as given in US6716597B2, “Methods and products for regulating cell motility” (priority 2000, dated 2004).

Tested on: Ena/VASP proteins (Mena, VASP) in Rat2 cells
Test: Immunofluorescence localization of endogenous Ena/VASP proteins
Assay type: cell-based, rat
Conditions: Rat2 cells incubated with 150 nM cytochalasin D

With `C=C1[C@@H](C)[C@H]2[C@H](Cc3ccccc3)NC(=O)[C@]23[C@H](OC(C)=O)/C=C/[C@@](C)(O)C(=O)[C@@H](C)C/C=C/[C@H]3[C@@H]1O` [cytochalasin D, reference compound] the Ena/VASP localization was “shifted away from the leading edge”.
